The values that follow come from US5744023A, “Method for separation and recovery of organogermanium compound” (Asai Germanium Research Institute Co., Ltd., priority 1994, dated 1998).

A short description of series [1]: electrodialysis separation of Ge-132 from saccharide solutions (Examples 1-6, Table 5).
A short description of series [2]: electrodialysis of isomerization mixture after glucose isomerization into fructose (Example 7, Table 6). The note with it: Example 7, isomerization mixture diluted ten-fold.
[3] abbreviates: Example 5, lactulose + Ge-132, 15 min.
Where [4] appears, read: Example 5, lactulose + Ge-132, 30 min.
Where [5] appears, read: Example 6, lactose/lactulose + Ge-132, 15 min.
The mark [6] stands for this setting: Example 6, lactose/lactulose + Ge-132, 30 min.
[7] abbreviates: Example 1, glucose + Ge-132, 15 min.
Where [8] appears, read: Example 1, glucose + Ge-132, 30 min.
[9] abbreviates: Example 2, fructose + Ge-132, 15 min.
Setting [10] is: Example 2, fructose + Ge-132, 30 min.
Where [11] appears, read: Example 3, glucose/fructose + Ge-132, 15 min.
[12] abbreviates: Example 3, glucose/fructose + Ge-132, 30 min.
[13] abbreviates: Example 4, lactose + Ge-132, 15 min.
[14] abbreviates: Example 4, lactose + Ge-132, 30 min.

Each structure is given as a SMILES string.

Consider `OC[C@H]1O[C@@H](O[C@@H]2[C@@H](CO)OC(O)(CO)[C@H]2O)[C@H](O)[C@@H](O)[C@H]1O` (mixture of isomers) [Lactulose, lactulose], for which the “Concentration after desalting C2” value was found to be 9.575 mM in series [1] (setting [3]), 9.635 mM in series [1] (setting [4]), 9.61 mM in series [1] (setting [5]) and 9.72 mM in series [1] (setting [6]). For the same compound, the “Reduction C1-C2” value amounted to 0.235 mM in series [1] (setting [3]), 0.715 mM in series [1] (setting [4]), 0.27 mM in series [1] (setting [5]) and 0.16 mM in series [1] (setting [6]). Further, the Reduction rate in series [1] (setting [3]) is on record as 2.40%; in series [1] (setting [4]) it was 1.78%; in series [1] (setting [5]) it was 2.73%; in series [1] (setting [6]), 1.62%.
Take `O=C(O)C[CH2][Ge](=[O])[O][Ge](=[O])[CH2]CC(=O)O` [Compound 1, 2-carboxyethylgermanium sesquioxide]: the “Concentration after desalting C2” value in series [2] (15 min) is 1.38 mM; in series [2] (30 min), 0.36 mM; in series [1] (setting [7]), 0.963 mM; in series [1] (setting [8]), 0.1615 mM; in series [1] (setting [9]), 0.68 mM; in series [1] (setting [10]), 0.1105 mM. Besides, the “Concentration after desalting C2” value in series [1] (setting [11]) is reported as 1.36 mM; in series [1] (setting [12]), 0.39 mM; in series [1] (setting [13]) it was 1.15 mM; in series [1] (setting [14]), 0.167 mM; in series [1] (setting [3]), 0.914 mM; in series [1] (setting [4]), 0.191 mM. The “Concentration after desalting C2” value in series [1] (setting [5]) was 1.23 mM; in series [1] (setting [6]) it was 0.326 mM. For the same compound, the “Reduction C1-C2” value is given as 6.12 mM in series [2] (15 min); 7.14 mM in series [2] (30 min); 3.187 mM in series [1] (setting [7]); 3.9885 mM in series [1] (setting [8]); 3.49 mM in series [1] (setting [9]); 4.0595 mM in series [1] (setting [10]). Besides, the “Reduction C1-C2” value amounted to 2.67 mM in series [1] (setting [11]); 3.64 mM in series [1] (setting [12]); 3.01 mM in series [1] (setting [13]); 3.993 mM in series [1] (setting [14]); 3.286 mM in series [1] (setting [3]); 4.009 mM in series [1] (setting [4]). Besides, the figures for the “Reduction C1-C2” value in series [1] (setting [5]) and in series [1] (setting [6]) were 2.95 mM and 3.854 mM, respectively. Further, the Reduction rate worked out at 81.56% in series [2] (15 min); 96.25% in series [2] (30 min); 76.80% in series [1] (setting [7]); 96.11% in series [1] (setting [8]); 83.69% in series [1] (setting [9]); 97.35% in series [1] (setting [10]). The Reduction rate in series [1] (setting [11]) amounted to 66.25%; in series [1] (setting [12]), 90.35%; in series [1] (setting [13]) it was 72.36%; in series [1] (setting [14]), 95.99%; in series [1] (setting [3]), 78.24%; in series [1] (setting [4]), 95.45%. Moreover, the Reduction rate in series [1] (setting [5]) turned out to be 70.57%; in series [1] (setting [6]), 92.20%.
Consider `O=C(CO)[C@@H](O)[C@H](O)[C@H](O)CO` [Fructose, fructose], for which the “Concentration after desalting C2” value in series [2] (15 min) is 13.26 mM; in series [2] (30 min), 13.22 mM; in series [1] (setting [9]) it was 9.13 mM; in series [1] (setting [10]), 9.1 mM; in series [1] (setting [11]) it was 9.105 mM; in series [1] (setting [12]) it was 9.11 mM. Also, the “Reduction C1-C2” value in series [2] (15 min) stood at 1.54 mM; in series [2] (30 min) it was 1.58 mM; in series [1] (setting [9]) it was 1.17 mM; in series [1] (setting [10]), 1.2 mM; in series [1] (setting [11]) it was 0.605 mM; in series [1] (setting [12]), 0.61 mM. Also, the Reduction rate in series [2] (15 min) is reported as 10.41%; in series [2] (30 min) it was 10.67%; in series [1] (setting [9]), 11.36%; in series [1] (setting [10]), 11.65%; in series [1] (setting [11]), 6.23%; in series [1] (setting [12]), 6.18%.
In the case of `O=C[C@H](O)[C@@H](O)[C@H](O)[C@H](O)CO` [Glucose, glucose], the “Concentration after desalting C2” value in series [2] (15 min) was 0.154 mM; in series [2] (30 min), 0.154 mM; in series [1] (setting [7]), 9.915 mM; in series [1] (setting [8]) it was 9.095 mM; in series [1] (setting [11]), 9.65 mM; in series [1] (setting [12]), 9.7 mM. Moreover, the “Reduction C1-C2” value in series [2] (15 min) is recorded as 0.011 mM; in series [2] (30 min) it was 0.011 mM; in series [1] (setting [7]) it was 0.185 mM; in series [1] (setting [8]), 0.195 mM; in series [1] (setting [11]), 0.45 mM; in series [1] (setting [12]), 0.405 mM. Besides, the Reduction rate is 7.14% in series [2] (15 min); 6.67% in series [2] (30 min); 1.83% in series [1] (setting [7]); 1.93% in series [1] (setting [8]); 4.46% in series [1] (setting [11]); 4.01% in series [1] (setting [12]).
In the case of `OC[C@H]1O[C@@H](O[C@H]2[C@H](O)[C@@H](O)C(O)O[C@@H]2CO)[C@H](O)[C@@H](O)[C@H]1O` (stereo partly shown) [Lactose, lactose], the “Concentration after desalting C2” value in series [1] (setting [13]) came to 9.865 mM; in series [1] (setting [14]), 9.925 mM; in series [1] (setting [5]), 9.71 mM; in series [1] (setting [6]), 9.585 mM. The “Reduction C1-C2” value turned out to be 0.075 mM in series [1] (setting [13]), 0.015 mM in series [1] (setting [14]), 0.08 mM in series [1] (setting [5]) and 0.205 mM in series [1] (setting [6]). The Reduction rate is listed as 0.75% in series [1] (setting [13]) and 0.15% in series [1] (setting [14]).
